Experimental data reported in US9314497B2, “E2F as a target of hormone refractory prostate cancer” (RUTGERS, THE STATE UNIVERSITY OF NEW JERSEY, priority 2009, dated 2016).
At least one peptide structure holds a part that was inferred or is arguable (an end, a ring closure or a residue).

Tests used:
[1] = tested on: H69 (small cell lung cancer) cell line; assay: Cell viability, H69 cells; format: cell-based, human; details: H69 vs H865
DU 145 cells = assay: Annexin V and PI staining by flow cytometry; format: cell-based, human; details: 50 micromolar, 4 and 24 hours, n=3
[2] = tested on: E2F-1, TS, TK, and RR-2 mRNA; assay: RT-PCR analysis on total RNA; format: cell-based, human; details: DU145 cells, 8 hours after treatment
DU145 cells = assay: Repeated addition of fresh peptide, viable cells by trypan blue staining; format: cell-based, human; details: DU145, collected at day 3
[3] = 24 h pre-incubation
[4] = tested on: E2F-1, TS, TK, and RR-2 protein; assay: Western blotting of E2F protein targets; format: cell-based, human; details: DU145 cells, 24 hours after treatment
E2F-1 promoter = assay: ChIP assay with antibody against E2F-1; format: cell-based, human; details: serum-starved DU145 cells, 24 hours
[5] = tested on: primary mouse fibroblasts (MEFs); assay: Cell viability, primary mouse fibroblasts; format: cell-based
[6] = tested on: E2F-2 and E2F-4, as well as E2F-1; assay: Further studies on down regulation of E2F family members; format: cell-based
[7] = tested on: marrow mesenchymal stem cells (HMSC); assay: Cell viability, marrow mesenchymal stem cells; format: cell-based, human

SMILES	sensitivity of H69 compared to the H865 cell line (functional pRb) [1]	apoptosis (Annexin V and PI staining) (DU 145 cells)	E2F-1, TS, TK, and RR-2 mRNA levels [2]	potency when fresh peptide is added every 24 hours (percentage of viable cells) (DU145 cells)	cytotoxicity after incubating the peptide in cell-free media and FBS for 24 h before adding cells [3]	E2F-1, TS, TK, and RR-2 protein levels [4]	binding to the E2F-1 promoter, competing with E2F-1 (E2F-1 promoter)	sensitivity to the PEP [5]	down regulation of E2F-2, E2F-4 and E2F-1 [6]	sensitivity to the PEP [7]
CC[C@H](C)[C@H](NC(=O)[C@H](CCCCN)NC(=O)[C@@H](NC(=O)[C@H](CCC(N)=O)NC(=O)[C@@H](N)CCCNC(=N)N)[C@@H](C)CC)C(=O)N[C@@H](Cc1c[nH]c2ccccc12)C(=O)N[C@@H](Cc1ccccc1)C(=O)N[C@@H](CCC(N)=O)C(=O)N[C@@H](CC(N)=O)C(=O)N[C@@H](CCCNC(=N)N)C(=O)N[C@@H](CCCNC(=N)N)C(=O)N[C@@H](CCSC)C(=O)N[C@@H](CCCCN)C(=O)N[C@@H](Cc1c[nH]c2ccccc12)C(=O)N[C@@H](CCCCN)C(=O)N[C@@H](CCCCN)C(=O)N[C@@H](Cc1c[nH]cn1)C(=O)N[C@@H](Cc1c[nH]cn1)C(=O)N[C@@H](Cc1c[nH]cn1)C(=O)N[C@@H](CCCNC(=N)N)C(=O)N[C@@H](CC(C)C)C(=O)N[C@@H](CO)C(=O)N[C@@H](Cc1c[nH]cn1)C(=O)O [SEQ ID NO: 3]	more sensitive	underwent apoptosis following as little as a 4 hour exposure	down regulated	increased potency	marked decrease in cytotoxicity	down regulated	bound to the E2F-1 promoter	relatively insensitive	down regulates	relatively insensitive
CC[C@H](C)[C@H](NC(=O)[C@H](CCCCN)NC(=O)[C@@H](NC(=O)[C@H](CCC(N)=O)NC(=O)[C@@H](N)CCCNC(=N)N)[C@@H](C)CC)C(=O)N[C@@H](Cc1c[nH]c2ccccc12)C(=O)N[C@@H](Cc1ccccc1)C(=O)N[C@@H](CCC(N)=O)C(=O)N[C@@H](CC(N)=O)C(=O)N[C@@H](CCCNC(=N)N)C(=O)N[C@@H](CCCNC(=N)N)C(=O)N[C@@H](CCSC)C(=O)N[C@@H](CCCCN)C(=O)N[C@@H](Cc1c[nH]c2ccccc12)C(=O)N[C@@H](CCCCN)C(=O)N[C@@H](CCCCN)C(=O)N[C@@H](C)C(=O)N[C@@H](C)C(=O)N[C@@H](C)C(=O)N[C@H](C(=O)N[C@@H](CC(C)C)C(=O)N[C@@H](CO)C(=O)N[C@@H](C)C(=O)O)C(C)C [SEQ ID NO: 19, reference compound]							but not			
